# Measurements from the supplement of paper PMC8728848.
# The other results are listed elsewhere or left out.
# Columns and labels:
# Assay in all cases: glycan array binding signal (z-score within array); higher = stronger binding
# Conditions in all cases: glycan notation: IUPAC condensed, linker removed
# [1] = target: GlcNAc(b1-4)GlcNAc(b1-4)GlcNAc(b1-4)GlcNAc(b1-4)GlcNAc
# Outline: (§1)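 Negative Z-scores can be read as non-binding. The Z-score is calculated within each array and then averaged across arrays of one protein sequence at different concentrations or buffers and across linkers. Arrays, 3228 in all, were curated from the Consortium for Functional Glycomics database and kept only where the protein sequence was available.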
# [2] = target: GlcNAc(b1-4)GlcNAc(b1-4)GlcNAc(b1-4)GlcNAc(b1-4)GlcNAc(b1-4)GlcNAc
# Outline: as §1
# [3] = target: GlcNAc(b1-4)[GlcNAc(b1-6)]GalNAc
# Outline: as §1
# [4] = target: GlcNAc(b1-6)Gal(b1-4)GlcNAc
# Outline: as §1
# GlcNAc(b1-6)GalNAc = target: GlcNAc(b1-6)GalNAc
# Outline: as §1
# [5] = target: GlcNAc6S(b1-3)Gal(b1-4)GlcNAc
# Outline: as §1
# Kdn(a2-3)Gal(b1-3)GalNAc = target: Kdn(a2-3)Gal(b1-3)GalNAc
# Outline: as §1
# Kdn(a2-3)Gal(b1-3)GlcNAc = target: Kdn(a2-3)Gal(b1-3)GlcNAc
# Outline: as §1
# Kdn(a2-3)Gal(b1-4)Glc = target: Kdn(a2-3)Gal(b1-4)Glc
# Outline: as §1
# Kdn(a2-3)Gal(b1-4)GlcNAc = target: Kdn(a2-3)Gal(b1-4)GlcNAc
# Outline: as §1
# [6] = target: Kdn(a2-3)Gal(b1-4)[Fuc(a1-3)]GlcNAc
# Outline: as §1
# Kdn(a2-6)Gal(b1-4)GlcNAc = target: Kdn(a2-6)Gal(b1-4)GlcNAc
# Outline: as §1
# [7] = target: Man(a1-2)Man(a1-2)Man(a1-3)Man
# Outline: as §1
# [8] = target: Man(a1-2)Man(a1-2)Man(a1-6)[Man(a1-3)]Man
# Outline: as §1
# Man(a1-2)Man(a1-3)Man = target: Man(a1-2)Man(a1-3)Man
# Outline: as §1
# [9] = target: Man(a1-2)Man(a1-3)[Man(a1-2)Man(a1-6)]Man
# Outline: as §1
# [10] = target: Man(a1-2)Man(a1-3)[Man(a1-2)Man(a1-6)]Man(a1-6)[Man(a1-2)Man(a1-2)Man(a1-3)]Man
# Outline: as §1
# [11] = target: Man(a1-2)Man(a1-3)[Man(a1-2)Man(a1-6)]Man(a1-6)[Man(a1-2)Man(a1-2)Man(a1-3)]Man(b1-4)GlcNAc(b1-4)GlcNAc
# Outline: as §1
# [12] = target: Man(a1-2)Man(a1-3)[Man(a1-6)]Man(a1-6)[Man(a1-2)Man(a1-3)]Man(b1-4)GlcNAc(b1-4)GlcNAc
# Outline: as §1
# [13] = target: Man(a1-2)Man(a1-6)[Man(a1-3)]Man(a1-6)[Man(a1-2)Man(a1-2)Man(a1-3)]Man
# Outline: as §1
# [14] = target: Man(a1-2)Man(a1-6)[Man(a1-3)]Man(a1-6)[Man(a1-2)Man(a1-2)Man(a1-3)]Man(b1-4)GlcNAc(b1-4)GlcNAc
# Outline: as §1
# Man(a1-3)[Man(a1-6)]Man = target: Man(a1-3)[Man(a1-6)]Man
# Outline: as §1
# [15] = target: Man(a1-3)[Man(a1-6)]Man(a1-6)[Man(a1-2)Man(a1-3)]Man(b1-4)GlcNAc(b1-4)GlcNAc
# Outline: as §1
# [16] = target: Man(a1-3)[Man(a1-6)]Man(a1-6)[Man(a1-3)]Man
# Outline: as §1
# [17] = target: Man(a1-3)[Man(a1-6)]Man(a1-6)[Man(a1-3)]Man(b1-4)GlcNAc(b1-4)GlcNAc
# Outline: as §1
# [18] = target: Man(a1-3)[Man(a1-6)]Man(b1-4)GlcNAc(b1-4)GlcNAc
# Outline: as §1
# [19] = target: Man(a1-3)[Man(a1-6)]Man(b1-4)GlcNAc(b1-4)[Fuc(a1-6)]GlcNAc
# Outline: as §1
# Man(a1-6)Man = target: Man(a1-6)Man
# Outline: as §1
# Man(b1-4)GlcNAc = target: Man(b1-4)GlcNAc
# Outline: as §1
# MurNAc(b1-4)GlcNAc = target: MurNAc(b1-4)GlcNAc
# Outline: as §1
# Neu5Ac(a2-3)Gal = target: Neu5Ac(a2-3)Gal
# Outline: as §1
# [20] = target: Neu5Ac(a2-3)Gal(b1-3)GalNAc
# Outline: as §1
# [21] = target: Neu5Ac(a2-3)Gal(b1-3)GalNAc(b1-3)Gal(a1-4)Gal(b1-4)Glc
# Outline: as §1
# [22] = target: Neu5Ac(a2-3)Gal(b1-3)GalNAc(b1-4)Gal(b1-4)Glc
# Outline: as §1
# [23] = target: Neu5Ac(a2-3)Gal(b1-3)GalNAc(b1-4)[Neu5Ac(a2-3)]Gal(b1-4)Glc
# Outline: as §1
# [24] = target: Neu5Ac(a2-3)Gal(b1-3)GalNAc(b1-4)[Neu5Ac(a2-8)Neu5Ac(a2-3)]Gal(b1-4)Glc
# Outline: as §1
# [25] = target: Neu5Ac(a2-3)Gal(b1-3)GalNAc6S
# Outline: as §1
# [26] = target: Neu5Ac(a2-3)Gal(b1-3)GlcNAc
# Outline: as §1
# [27] = target: Neu5Ac(a2-3)Gal(b1-3)GlcNAc(b1-2)Man
# Outline: as §1
# [28] = target: Neu5Ac(a2-3)Gal(b1-3)GlcNAc(b1-2)Man(a1-3)[GlcNAc(b1-4)][Neu5Ac(a2-3)Gal(b1-3)GlcNAc(b1-2)Man(a1-6)]Man(b1-4)GlcNAc(b1-4)GlcNAc
# Outline: as §1
# [29] = target: Neu5Ac(a2-3)Gal(b1-3)GlcNAc(b1-2)Man(a1-3)[Neu5Ac(a2-3)Gal(b1-3)GlcNAc(b1-2)Man(a1-6)]Man(b1-4)GlcNAc(b1-4)GlcNAc
# Outline: as §1
# [30] = target: Neu5Ac(a2-3)Gal(b1-3)GlcNAc(b1-2)[Neu5Ac(a2-3)Gal(b1-3)GlcNAc(b1-4)]Man(a1-6)[Neu5Ac(a2-3)Gal(b1-3)GlcNAc(b1-2)Man(a1-3)]Man(b1-4)GlcNAc(b1-4)GlcNAc
# Outline: as §1
# [31] = target: Neu5Ac(a2-3)Gal(b1-3)GlcNAc(b1-3)Gal(b1-3)GlcNAc
# Outline: as §1
# [32] = target: Neu5Ac(a2-3)Gal(b1-3)GlcNAc(b1-3)Gal(b1-4)GlcNAc
# Outline: as §1
# [33] = target: Neu5Ac(a2-3)Gal(b1-3)GlcNAc(b1-3)GalNAc
# Outline: as §1
binder,measurement,setting,value
"cFel (Cyprinus carpio), P68512 (protein) LDCTVIDGNLKQIDAGSGSVVGVNNLNETFVLIDNVFTKISGSLKHFSVGPAGQLGVNTANNIFKYQSGGFVQLAGLLKQVDAGGDQIIAGVNMYDDIYCLNMDANNKWPSSNTPWVQINGKLKYYSCGPYSCWGVNSNDQIFIMKDVSSNVCSGSGSFINIPGLLSMIEVATDGSVFGVNSQGNLYQRTGVTRSKPDGTDWISMVACPNGHKHVSFDLGVLWLVCVDGSIRKCILTD",glycan array binding signal (z-score),[1],0.165
same,glycan array binding signal (z-score),[2],-1.45
same,glycan array binding signal (z-score),[3],-0.003
same,glycan array binding signal (z-score),[4],1.43
same,glycan array binding signal (z-score),GlcNAc(b1-6)GalNAc,-0.628
same,glycan array binding signal (z-score),[5],-0.424
same,glycan array binding signal (z-score),Kdn(a2-3)Gal(b1-3)GalNAc,1.83
same,glycan array binding signal (z-score),Kdn(a2-3)Gal(b1-3)GlcNAc,-0.939
same,glycan array binding signal (z-score),Kdn(a2-3)Gal(b1-4)Glc,1.15
same,glycan array binding signal (z-score),Kdn(a2-3)Gal(b1-4)GlcNAc,0.685
same,glycan array binding signal (z-score),[6],-1.1
same,glycan array binding signal (z-score),Kdn(a2-6)Gal(b1-4)GlcNAc,0.109
same,glycan array binding signal (z-score),[7],0.403
same,glycan array binding signal (z-score),[8],1.11
same,glycan array binding signal (z-score),Man(a1-2)Man(a1-3)Man,-0.769
same,glycan array binding signal (z-score),[9],-0.303
same,glycan array binding signal (z-score),[10],0.373
same,glycan array binding signal (z-score),[11],-0.87
same,glycan array binding signal (z-score),[12],-0.971
same,glycan array binding signal (z-score),[13],-0.113
same,glycan array binding signal (z-score),[14],0.148
same,glycan array binding signal (z-score),Man(a1-3)[Man(a1-6)]Man,0.695
same,glycan array binding signal (z-score),[15],0.309
same,glycan array binding signal (z-score),[16],1.62
same,glycan array binding signal (z-score),[17],-0.914
same,glycan array binding signal (z-score),[18],-0.514
same,glycan array binding signal (z-score),[19],1.72
same,glycan array binding signal (z-score),Man(a1-6)Man,-0.548
same,glycan array binding signal (z-score),Man(b1-4)GlcNAc,-1.25
same,glycan array binding signal (z-score),MurNAc(b1-4)GlcNAc,-0.194
same,glycan array binding signal (z-score),Neu5Ac(a2-3)Gal,0.009
same,glycan array binding signal (z-score),[20],-0.963
same,glycan array binding signal (z-score),[21],0.195
same,glycan array binding signal (z-score),[22],0.6
same,glycan array binding signal (z-score),[23],-0.299
same,glycan array binding signal (z-score),[24],-0.349
same,glycan array binding signal (z-score),[25],-0.772
same,glycan array binding signal (z-score),[26],-0.487
same,glycan array binding signal (z-score),[27],-0.6
same,glycan array binding signal (z-score),[28],-1.25
same,glycan array binding signal (z-score),[29],-0.621
same,glycan array binding signal (z-score),[30],0.972
same,glycan array binding signal (z-score),[31],2.55
same,glycan array binding signal (z-score),[32],-1.02
same,glycan array binding signal (z-score),[33],-0.617

# 3 records drawn at random from those above:
binder,measurement,setting,value
"cFel (Cyprinus carpio), P68512 (protein) LDCTVIDGNLKQIDAGSGSVVGVNNLNETFVLIDNVFTKISGSLKHFSVGPAGQLGVNTANNIFKYQSGGFVQLAGLLKQVDAGGDQIIAGVNMYDDIYCLNMDANNKWPSSNTPWVQINGKLKYYSCGPYSCWGVNSNDQIFIMKDVSSNVCSGSGSFINIPGLLSMIEVATDGSVFGVNSQGNLYQRTGVTRSKPDGTDWISMVACPNGHKHVSFDLGVLWLVCVDGSIRKCILTD",glycan array binding signal (z-score),MurNAc(b1-4)GlcNAc,-0.194
same,glycan array binding signal (z-score),[15],0.309
same,glycan array binding signal (z-score),Kdn(a2-3)Gal(b1-4)Glc,1.15
